# Tests used:
# Test in all cases: Isotope labeling and SRS imaging
# Format in all cases: cell-based, human
# SKOV3 cells = details: C-D signal out of total cellular area, mean
# PEO1 cells = details: PE01 cells, C-D signal out of total cellular area, mean
# SKOV3-cisR cells = details: C-D signal out of total cellular area, mean
# Procedure: (§1) For labeling with glucose-d7, media was replaced with glucose-free DMEM medium (Thermo Fisher Scientific, #11966025)+10% FBS+P/S supplemented with 25 mM glucose-d7 after seeding the cells in 35 mm glass-bottom dishes overnight. For labeling with FA or analogs, including PA-d31, OA-d34, and ODYA, FA or analogs were added to the culture media at final concentration of 100 μM and cells were treated for 6 h. For quantitative SRS imaging, cells on glass-bottom dishes were fixed with 10% neutral buffered formalin for 30 min and washed with PBS for 3 times. Hyperspectral SRS imaging was performed to the cells at Raman spectral region from 2100 to 2300 cm^−1.
# (§2) To identify the source of increased lipid content in cisplatin-resistant ovarian cancer cells, the contribution of de novo lipogenesis and of fatty acid uptake were examined, respectively. Using a stable isotope probing method, the level of lipogenesis was examined by feeding the cells with deuterium labeled glucose-d7. Newly synthesized macromolecules (mostly lipids) were imaged by hyperspectral SRS microscopy at Raman shift from 2050 cm^−1 to 2350 cm^−1, covering the vibrational frequencies of C-D bonds. […] Quantitative analysis confirmed significant reduction of both signal intensity and relative area fraction in PEO4 cells when compared to PEO1 cells (FIG. 2B), indicating a decrease in glucose derived anabolism and de novo lipogenesis in cisplatin-resistant cells. Using a similar approach, the fatty acid uptake was examined by hyperspectral SRS imaging at C-D vibrational frequencies in cells fed with deuterium labeled palmitic acid-d31 (PA-d31). In contrast to glucose-d7 fed cells, C-D signal in PA-d31 fed PEO4 cells was stronger than PEO1 cells (FIG. 2C). […] In addition to saturated FA (PA-d31), the uptake of an unsaturated fatty acid, oleic acid-d34 (OA-d34) was tested.
# (§3) Having shown decreased glucose-derived anabolism and increased fatty acid uptake in cisplatin-resistant ovarian cancer cells, whether this metabolic feature can be used for differentiation of cisplatin-resistant from cisplatin-sensitive cancer cells was explored. […] In Table 2 below, quantitation of glucose-d7 (G-d7), PA-d31, and OA-d34 are shown as area fraction of C-D signal out of total cellular area, in mean values.
# OVCAR5-cisR cells = details: C-D signal out of total cellular area, mean
# Procedure: as §1, §2, §3
# COV362 cells = details: C-D signal out of total cellular area, mean
# OVCAR5 cells = details: C-D signal out of total cellular area, mean
# COV362-cisR cells = details: C-D signal out of total cellular area, mean
# PEO4 cells = details: PE04 cells, C-D signal out of total cellular area, mean
structure (smiles),measurement,setting,value
"[2H]OC(=O)C([2H])([2H])C([2H])([2H])C([2H])([2H])C([2H])([2H])C([2H])([2H])C([2H])([2H])C([2H])([2H])/C([2H])=C(/[2H])C([2H])([2H])C([2H])([2H])C([2H])([2H])C([2H])([2H])C([2H])([2H])C([2H])([2H])C([2H])([2H])C([2H])([2H])[2H] [OA-d34, oleic acid-d34]",Intensity (area fraction (%)) OA-d34,SKOV3 cells; fed with OA-d34 100 μM for 6 h,6.24%
same,Intensity (area fraction (%)) OA-d34,PEO1 cells; fed with OA-d34 100 μM for 6 h,17.25%
same,Intensity (area fraction (%)) OA-d34,SKOV3-cisR cells; fed with OA-d34 100 μM for 6 h,10.97%
same,Intensity (area fraction (%)) OA-d34,OVCAR5-cisR cells; fed with OA-d34 100 μM for 6 h,23.28%
same,Intensity (area fraction (%)) OA-d34,COV362 cells; fed with OA-d34 100 μM for 6 h,31.00%
same,Intensity (area fraction (%)) OA-d34,OVCAR5 cells; fed with OA-d34 100 μM for 6 h,18.35%
same,Intensity (area fraction (%)) OA-d34,COV362-cisR cells; fed with OA-d34 100 μM for 6 h,41.43%
same,Intensity (area fraction (%)) OA-d34,PEO4 cells; fed with OA-d34 100 μM for 6 h,21.61%
"[2H]C(=O)[C@]([2H])(O)[C@@]([2H])(O)[C@]([2H])(O)[C@]([2H])(O)C([2H])([2H])O [G-d7, glucose-d7]",Intensity (area fraction (%)) G-d7,SKOV3 cells; fed with glucose-d7 for 3 days,3.39%
same,Intensity (area fraction (%)) G-d7,PEO1 cells; fed with glucose-d7 for 3 days,3.88%
same,Intensity (area fraction (%)) G-d7,SKOV3-cisR cells; fed with glucose-d7 for 3 days,0.84%
same,Intensity (area fraction (%)) G-d7,OVCAR5-cisR cells; fed with glucose-d7 for 3 days,2.51%
same,Intensity (area fraction (%)) G-d7,COV362 cells; fed with glucose-d7 for 3 days,3.14%
same,Intensity (area fraction (%)) G-d7,OVCAR5 cells; fed with glucose-d7 for 3 days,3.64%
same,Intensity (area fraction (%)) G-d7,COV362-cisR cells; fed with glucose-d7 for 3 days,2.03%
same,Intensity (area fraction (%)) G-d7,PEO4 cells; fed with glucose-d7 for 3 days,0.93%
"[2H]C([2H])([2H])C([2H])([2H])C([2H])([2H])C([2H])([2H])C([2H])([2H])C([2H])([2H])C([2H])([2H])C([2H])([2H])C([2H])([2H])C([2H])([2H])C([2H])([2H])C([2H])([2H])C([2H])([2H])C([2H])([2H])C([2H])([2H])C(=O)O [PA-d31, palmitic acid-d31]",Intensity (area fraction (%)) PA-d31,COV362 cells; fed with PA-d31 100 μM for 6 h,4.44%
same,Intensity (area fraction (%)) PA-d31,COV362-cisR cells; fed with PA-d31 100 μM for 6 h,14.88%

# Source: patent US12055536B2, “Device for detection of cellular stress” (Trustees of Boston University, priority 2021, dated 2024)
